Screening data, single-dose tests

Sequences of proteins named here, by UniProt entry; tags and fusion partners are left off. Residues count along the entry.
UniProt P9WFT3, whole entry: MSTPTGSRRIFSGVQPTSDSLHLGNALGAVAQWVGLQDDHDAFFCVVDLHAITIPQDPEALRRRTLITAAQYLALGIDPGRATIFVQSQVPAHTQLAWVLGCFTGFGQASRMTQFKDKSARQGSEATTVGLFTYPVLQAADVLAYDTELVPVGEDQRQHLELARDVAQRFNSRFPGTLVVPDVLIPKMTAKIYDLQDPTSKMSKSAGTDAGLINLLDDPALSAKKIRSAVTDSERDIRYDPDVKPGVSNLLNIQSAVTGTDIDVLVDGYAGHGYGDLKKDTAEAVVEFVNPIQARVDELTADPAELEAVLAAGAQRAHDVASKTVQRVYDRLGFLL
UniProt I6X8D2, whole entry: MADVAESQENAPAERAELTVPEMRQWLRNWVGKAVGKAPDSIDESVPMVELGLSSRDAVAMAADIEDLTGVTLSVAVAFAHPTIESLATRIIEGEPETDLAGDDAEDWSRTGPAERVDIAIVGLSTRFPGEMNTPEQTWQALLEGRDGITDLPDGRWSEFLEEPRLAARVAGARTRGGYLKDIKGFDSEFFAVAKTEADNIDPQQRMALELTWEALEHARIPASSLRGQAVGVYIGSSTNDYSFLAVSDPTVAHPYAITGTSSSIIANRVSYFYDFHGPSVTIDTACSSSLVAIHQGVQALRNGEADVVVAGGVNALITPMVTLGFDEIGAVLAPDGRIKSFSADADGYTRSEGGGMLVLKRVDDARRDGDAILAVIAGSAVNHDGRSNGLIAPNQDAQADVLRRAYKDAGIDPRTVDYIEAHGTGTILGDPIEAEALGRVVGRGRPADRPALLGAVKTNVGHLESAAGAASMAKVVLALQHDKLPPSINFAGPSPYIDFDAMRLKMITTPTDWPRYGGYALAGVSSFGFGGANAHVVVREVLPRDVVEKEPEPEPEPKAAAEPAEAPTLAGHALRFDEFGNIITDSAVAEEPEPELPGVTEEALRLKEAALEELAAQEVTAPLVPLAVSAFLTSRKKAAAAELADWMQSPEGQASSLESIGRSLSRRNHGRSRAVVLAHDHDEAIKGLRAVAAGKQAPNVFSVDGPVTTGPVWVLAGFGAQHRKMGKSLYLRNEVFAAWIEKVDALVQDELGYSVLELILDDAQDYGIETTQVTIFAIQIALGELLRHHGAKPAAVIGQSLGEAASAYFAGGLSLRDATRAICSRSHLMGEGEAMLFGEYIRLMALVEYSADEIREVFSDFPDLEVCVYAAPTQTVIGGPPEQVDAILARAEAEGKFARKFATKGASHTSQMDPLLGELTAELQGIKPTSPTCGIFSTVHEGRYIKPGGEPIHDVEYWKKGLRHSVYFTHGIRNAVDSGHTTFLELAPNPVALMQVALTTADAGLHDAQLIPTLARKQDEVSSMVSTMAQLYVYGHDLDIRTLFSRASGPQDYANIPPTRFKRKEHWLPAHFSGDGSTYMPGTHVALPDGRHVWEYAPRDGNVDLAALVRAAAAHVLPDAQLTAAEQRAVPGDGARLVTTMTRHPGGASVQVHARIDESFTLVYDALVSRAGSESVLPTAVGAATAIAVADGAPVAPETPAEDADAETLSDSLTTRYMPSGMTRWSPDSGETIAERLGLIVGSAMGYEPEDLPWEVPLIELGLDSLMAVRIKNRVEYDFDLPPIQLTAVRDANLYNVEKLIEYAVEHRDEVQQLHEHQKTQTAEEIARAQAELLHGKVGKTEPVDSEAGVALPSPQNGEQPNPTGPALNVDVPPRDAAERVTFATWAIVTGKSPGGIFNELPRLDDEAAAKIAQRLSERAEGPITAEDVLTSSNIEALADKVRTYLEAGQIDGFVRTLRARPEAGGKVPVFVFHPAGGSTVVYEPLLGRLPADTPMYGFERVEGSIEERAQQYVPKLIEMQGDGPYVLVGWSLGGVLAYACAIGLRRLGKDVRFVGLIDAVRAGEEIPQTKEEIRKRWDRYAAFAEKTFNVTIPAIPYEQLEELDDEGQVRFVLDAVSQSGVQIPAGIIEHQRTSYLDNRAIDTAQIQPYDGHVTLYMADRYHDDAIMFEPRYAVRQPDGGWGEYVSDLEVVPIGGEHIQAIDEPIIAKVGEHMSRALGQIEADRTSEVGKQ
UniProt A4I591, 1-473: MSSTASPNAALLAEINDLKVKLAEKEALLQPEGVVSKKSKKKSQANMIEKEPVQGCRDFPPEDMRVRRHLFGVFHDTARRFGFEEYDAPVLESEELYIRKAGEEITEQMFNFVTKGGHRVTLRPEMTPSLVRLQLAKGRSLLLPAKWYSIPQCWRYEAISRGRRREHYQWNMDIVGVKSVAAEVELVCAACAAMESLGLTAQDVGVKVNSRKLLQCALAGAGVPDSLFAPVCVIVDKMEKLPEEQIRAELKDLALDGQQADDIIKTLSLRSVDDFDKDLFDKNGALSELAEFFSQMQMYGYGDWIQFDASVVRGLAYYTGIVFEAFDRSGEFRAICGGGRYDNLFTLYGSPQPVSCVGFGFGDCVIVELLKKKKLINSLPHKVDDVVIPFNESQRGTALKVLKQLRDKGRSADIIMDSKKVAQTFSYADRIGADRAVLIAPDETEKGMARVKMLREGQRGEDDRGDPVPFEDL
UniProt Q4DA54, 1-478: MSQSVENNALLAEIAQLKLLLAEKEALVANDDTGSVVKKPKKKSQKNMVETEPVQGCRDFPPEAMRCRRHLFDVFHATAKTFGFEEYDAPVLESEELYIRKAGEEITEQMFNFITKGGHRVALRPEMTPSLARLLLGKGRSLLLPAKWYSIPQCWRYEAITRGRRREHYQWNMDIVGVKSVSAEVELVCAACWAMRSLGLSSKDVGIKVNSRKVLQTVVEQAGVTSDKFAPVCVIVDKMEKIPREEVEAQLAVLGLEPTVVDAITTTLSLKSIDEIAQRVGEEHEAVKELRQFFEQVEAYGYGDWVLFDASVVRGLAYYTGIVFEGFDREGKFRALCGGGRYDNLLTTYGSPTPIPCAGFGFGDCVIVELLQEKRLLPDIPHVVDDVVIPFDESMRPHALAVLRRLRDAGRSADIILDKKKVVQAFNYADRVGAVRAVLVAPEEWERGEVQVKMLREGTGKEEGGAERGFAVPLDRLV

Source: ChEMBL document CHEMBL3988442, “University of Dundee, Small-Polar-MMV Screening Library” (2021).

MtTrpRS: 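Tryptophan-tRNA ligase, Mycobacterium tuberculosis (UniProt P9WFT3). Enzyme assay of tryptophanyl-tRNA synthetase; the read-out is not stated. Compounds at 10 µM. Direction is not recorded; retested compounds ran higher, which suggests that high means inhibition. About 65,000 compounds were tested under these conditions; 0.098% (about 64) showed 50% or more at least once.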
Pks13 thioesterase: 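Enzyme assay of the thioesterase domain of polyketide synthase 13; the read-out is not stated. Target: Polyketide synthase Pks13, Mycobacterium tuberculosis (UniProt I6X8D2). Concentration: 30 µM. Higher reads as stronger inhibition (inferred from which compounds were picked for retests). About 67,000 compounds were tested under these conditions; 0.46% (about 300) showed 50% or more at least once.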
LiHisRS: 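Histidine-tRNA ligase, Leishmania infantum (UniProt A4I591). Enzyme assay of histidyl-tRNA synthetase; the read-out is not stated. Tested at 30 µM. The record gives no direction; compounds that gave an IC50 in retests scored well above the rest, so higher reads as stronger inhibition. The assay is labelled LdHisRS but filed under L. infantum. About 69,000 compounds were tested under these conditions; 0.6% (about 410) showed 50% or more at least once.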
TcHisRS: 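Histidine-tRNA ligase, Trypanosoma cruzi CL Brener (UniProt Q4DA54). Enzyme assay of histidyl-tRNA synthetase; the read-out is not stated. Tested at 30 µM. The record gives no direction; compounds that gave an IC50 in retests scored well above the rest, so higher reads as stronger inhibition. Of about 69,000 compounds tested this way, about 31 (0.045%) reached 50% or more in at least one test.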

Results are given as percent effect.
The controls that fix the scale are not given in the record; negative values are as filed.
The compounds are a random part of those screened.

{"compound": "O=C(NCc1ncc(-c2ccccc2)o1)NC1CCC(O)CC1", "stereo": "stereo not shown", "MtTrpRS": -1.611, "Pks13 thioesterase": -3.801, "LiHisRS": 15.79, "TcHisRS": 6.433}
{"compound": "CC(C)(C)CN1CCCC12CCN(S(=O)(=O)c1ccccc1)C2", "stereo": "stereo not shown", "MtTrpRS": -4.066, "Pks13 thioesterase": 4.101, "LiHisRS": 22, "TcHisRS": 7.843}
{"compound": "Cc1cc(CS(=O)(=O)C(C)c2ccc(F)cc2)on1", "stereo": "stereo not shown", "MtTrpRS": -2.437, "Pks13 thioesterase": -23.08, "LiHisRS": 14.29, "TcHisRS": 2.02}
{"compound": "Cc1cnn(C2CCCN(C(=O)c3cc(C4CC4)on3)C2)c1", "stereo": "stereo not shown", "MtTrpRS": 2.895, "Pks13 thioesterase": 18.56, "LiHisRS": 0, "TcHisRS": -0.7634}
{"compound": "CN(C)C(=O)c1noc2c1CN(C(=O)CCC1CCCCN1C)CC2", "stereo": "stereo not shown", "MtTrpRS": -2.021, "Pks13 thioesterase": -8.774, "LiHisRS": 4.167, "TcHisRS": 3.352}
{"compound": "Clc1ccc(-c2cnc(CNC3CCc4ncnn4C3)o2)cc1", "stereo": "stereo not shown", "MtTrpRS": -3.667, "Pks13 thioesterase": -9.126, "LiHisRS": 26.47, "TcHisRS": 0.5291}
{"compound": "Cc1cnn(CC2CCCCN2C(=O)c2n[nH]c3ccccc23)c1", "stereo": "stereo not shown", "MtTrpRS": 7.398, "Pks13 thioesterase": -24.69, "LiHisRS": -3.571, "TcHisRS": -1.153}
{"compound": "CN(CCO)c1nc(-c2ccccn2)nc2c1CCNC2", "MtTrpRS": -5.863, "Pks13 thioesterase": -9.524, "LiHisRS": 15.07, "TcHisRS": 3.96}
{"compound": "Cc1cc(C)n(CC(C)CNC(=O)NCc2csc(C)n2)n1", "stereo": "stereo not shown", "MtTrpRS": 24.69, "Pks13 thioesterase": -1.928, "LiHisRS": 15.32, "TcHisRS": -6.667}
{"compound": "CS(=O)(=O)NCC1CCCN(C(=O)c2ccc3c(c2)CCCC3)C1", "stereo": "stereo not shown", "MtTrpRS": -1.018, "Pks13 thioesterase": 25.24, "LiHisRS": 11.29, "TcHisRS": 5.155}
{"compound": "O=C(C[C@@H]1COC[C@H]2CN(C(=O)c3cccnc3)C[C@@H]12)N1CCOCC1", "MtTrpRS": 1.943, "Pks13 thioesterase": -5.247, "LiHisRS": 13.83, "TcHisRS": 8.04}
{"compound": "COCCN1CC(C(=O)Nc2ccc3c(c2)CCC(=O)N3C)CC1=O", "stereo": "stereo not shown", "MtTrpRS": -1.248, "Pks13 thioesterase": -10.07, "LiHisRS": 25.66, "TcHisRS": 2.212}
{"compound": "Cn1cc(C(=O)N2CCCC(C(=O)CCc3ccccc3)C2)cn1", "stereo": "stereo not shown", "MtTrpRS": 1.903, "Pks13 thioesterase": 11.17, "LiHisRS": 20.48, "TcHisRS": 4.878}
{"compound": "O=C(CN1CCCCCC1)NCc1cccnc1Oc1ccccc1", "MtTrpRS": 0.9029, "Pks13 thioesterase": -3.064, "LiHisRS": 6.4, "TcHisRS": 1.961}
{"compound": "FC(F)CN1CCOC(Cn2cccn2)C1", "stereo": "stereo not shown", "MtTrpRS": 3.691, "Pks13 thioesterase": -13.28, "LiHisRS": 18.8, "TcHisRS": 5.413}
{"compound": "CN(Cc1cc(Br)c2c(c1)OCO2)Cc1cscn1", "MtTrpRS": 2.381, "LiHisRS": 20.16, "TcHisRS": 4.762}
{"compound": "Cn1ncc2c1NC(=O)CSC2c1ccc2c(c1)OCO2", "stereo": "stereo not shown", "MtTrpRS": -1.22, "Pks13 thioesterase": -19.11, "LiHisRS": 0, "TcHisRS": 0}
{"compound": "CC(NCc1cnc(C2CCC2)s1)c1cccc(-n2ccnc2)c1", "stereo": "stereo not shown", "MtTrpRS": -2.279, "Pks13 thioesterase": 3.502, "LiHisRS": 0, "TcHisRS": 5.82}
{"compound": "CCCOc1cccc(C(=O)Oc2cc(=O)n3cccc(C)c3n2)c1", "MtTrpRS": 1.977, "Pks13 thioesterase": 4.606, "LiHisRS": 15.79, "TcHisRS": -1.22}
{"compound": "COc1cccc(CN2CCCC2c2ccc[nH]2)c1", "stereo": "stereo not shown", "MtTrpRS": 3.15, "Pks13 thioesterase": -2.5, "LiHisRS": 16.13, "TcHisRS": 7.738}
{"compound": "O=C(C1CCN(c2ncnc3cccc(F)c23)CC1)N1CCCC1", "MtTrpRS": -3.398, "Pks13 thioesterase": -11.71, "LiHisRS": 6.667, "TcHisRS": 2.941}

Once more, the final 2:

{"compound": "COc1cccc(CN2CCCC2c2ccc[nH]2)c1", "stereo": "stereo not shown", "MtTrpRS": 3.15, "Pks13 thioesterase": -2.5, "LiHisRS": 16.13, "TcHisRS": 7.738}
{"compound": "O=C(C1CCN(c2ncnc3cccc(F)c23)CC1)N1CCCC1", "MtTrpRS": -3.398, "Pks13 thioesterase": -11.71, "LiHisRS": 6.667, "TcHisRS": 2.941}